Assay results published in the supplement of paper PMC10849652.
This is one part of the list.

Chains of the proteins cited; added tags and fusions are not shown. Lines headed by an entry give the natural chain unless they say otherwise; changes in a name come on top.
UniProt Q15059, whole entry, looked up: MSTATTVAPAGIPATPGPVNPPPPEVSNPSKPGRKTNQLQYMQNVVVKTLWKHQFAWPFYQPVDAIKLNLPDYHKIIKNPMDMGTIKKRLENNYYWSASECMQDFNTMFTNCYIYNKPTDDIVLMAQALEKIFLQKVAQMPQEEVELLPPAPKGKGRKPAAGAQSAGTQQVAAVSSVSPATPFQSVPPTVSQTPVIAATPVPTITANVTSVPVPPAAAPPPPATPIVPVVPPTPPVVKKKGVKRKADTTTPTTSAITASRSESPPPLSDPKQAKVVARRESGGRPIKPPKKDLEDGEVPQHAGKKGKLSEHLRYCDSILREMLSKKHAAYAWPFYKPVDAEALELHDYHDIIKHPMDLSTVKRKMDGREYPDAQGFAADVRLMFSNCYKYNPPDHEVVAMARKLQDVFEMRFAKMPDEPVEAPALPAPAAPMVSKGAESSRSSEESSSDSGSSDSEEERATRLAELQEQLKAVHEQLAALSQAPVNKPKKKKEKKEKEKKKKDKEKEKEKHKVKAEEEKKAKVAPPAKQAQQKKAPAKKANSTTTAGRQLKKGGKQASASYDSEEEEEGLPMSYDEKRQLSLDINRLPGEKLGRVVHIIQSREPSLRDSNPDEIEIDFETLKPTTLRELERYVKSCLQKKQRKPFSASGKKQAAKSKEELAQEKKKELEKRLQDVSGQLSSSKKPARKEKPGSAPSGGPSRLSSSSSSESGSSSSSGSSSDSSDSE
UniProt P25440, whole entry, looked up: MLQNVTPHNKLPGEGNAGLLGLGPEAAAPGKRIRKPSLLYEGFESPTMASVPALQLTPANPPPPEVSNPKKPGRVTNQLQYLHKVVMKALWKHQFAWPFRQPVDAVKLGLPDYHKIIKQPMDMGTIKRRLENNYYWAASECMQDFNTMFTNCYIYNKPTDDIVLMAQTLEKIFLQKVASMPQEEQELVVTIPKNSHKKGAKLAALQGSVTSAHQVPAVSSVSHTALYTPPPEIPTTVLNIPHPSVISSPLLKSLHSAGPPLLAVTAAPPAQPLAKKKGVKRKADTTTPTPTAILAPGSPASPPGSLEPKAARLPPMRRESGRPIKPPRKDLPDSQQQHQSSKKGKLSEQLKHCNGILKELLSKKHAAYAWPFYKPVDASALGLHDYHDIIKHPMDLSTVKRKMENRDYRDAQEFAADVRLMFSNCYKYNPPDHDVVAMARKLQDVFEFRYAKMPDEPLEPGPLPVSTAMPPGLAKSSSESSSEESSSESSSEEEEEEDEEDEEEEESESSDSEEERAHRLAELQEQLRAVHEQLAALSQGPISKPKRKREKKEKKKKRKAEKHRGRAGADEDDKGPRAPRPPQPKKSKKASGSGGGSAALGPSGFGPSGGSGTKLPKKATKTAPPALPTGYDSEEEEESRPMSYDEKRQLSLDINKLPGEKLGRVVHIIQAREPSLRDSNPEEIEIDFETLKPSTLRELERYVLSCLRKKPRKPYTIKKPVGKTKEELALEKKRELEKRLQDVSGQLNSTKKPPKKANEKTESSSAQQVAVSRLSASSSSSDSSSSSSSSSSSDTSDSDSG
UniProt O43521, whole entry, looked up: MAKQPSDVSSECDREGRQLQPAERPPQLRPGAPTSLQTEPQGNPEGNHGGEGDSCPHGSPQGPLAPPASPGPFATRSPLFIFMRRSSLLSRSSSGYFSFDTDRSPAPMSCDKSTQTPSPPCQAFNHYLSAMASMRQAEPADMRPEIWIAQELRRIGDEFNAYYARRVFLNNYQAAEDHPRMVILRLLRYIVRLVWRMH
UniProt Q9BUT1: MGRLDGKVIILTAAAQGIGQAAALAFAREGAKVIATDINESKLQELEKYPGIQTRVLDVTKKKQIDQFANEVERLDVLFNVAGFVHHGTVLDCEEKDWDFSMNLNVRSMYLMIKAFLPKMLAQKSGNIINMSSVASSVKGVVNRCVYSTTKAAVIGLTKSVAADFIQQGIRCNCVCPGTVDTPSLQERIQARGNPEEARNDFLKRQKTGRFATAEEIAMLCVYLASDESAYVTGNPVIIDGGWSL
UniProt Q14CW9: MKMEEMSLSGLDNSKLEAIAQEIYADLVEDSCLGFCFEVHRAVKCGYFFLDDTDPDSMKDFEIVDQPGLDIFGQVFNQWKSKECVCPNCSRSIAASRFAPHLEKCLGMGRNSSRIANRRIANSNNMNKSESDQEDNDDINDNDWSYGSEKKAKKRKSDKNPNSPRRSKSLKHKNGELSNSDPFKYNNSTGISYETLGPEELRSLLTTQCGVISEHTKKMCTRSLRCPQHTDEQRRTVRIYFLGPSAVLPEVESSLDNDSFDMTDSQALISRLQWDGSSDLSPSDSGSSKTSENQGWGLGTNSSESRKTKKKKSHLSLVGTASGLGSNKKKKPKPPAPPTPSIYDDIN
UniProt Q9NYM9: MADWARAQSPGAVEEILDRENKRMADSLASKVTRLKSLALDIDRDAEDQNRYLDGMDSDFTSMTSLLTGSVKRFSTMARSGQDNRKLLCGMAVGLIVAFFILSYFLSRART
UniProt Q9BYG0: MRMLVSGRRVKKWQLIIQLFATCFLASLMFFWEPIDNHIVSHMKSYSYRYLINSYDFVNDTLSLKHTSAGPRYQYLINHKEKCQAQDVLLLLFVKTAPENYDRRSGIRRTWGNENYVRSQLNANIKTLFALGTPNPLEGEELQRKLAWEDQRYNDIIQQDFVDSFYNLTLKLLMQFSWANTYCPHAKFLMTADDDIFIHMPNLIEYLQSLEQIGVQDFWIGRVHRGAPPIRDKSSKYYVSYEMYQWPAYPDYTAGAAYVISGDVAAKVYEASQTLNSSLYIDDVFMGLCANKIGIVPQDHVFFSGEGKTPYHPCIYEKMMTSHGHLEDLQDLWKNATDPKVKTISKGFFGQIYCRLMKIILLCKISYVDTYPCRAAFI
UniProt Q12983, whole entry, looked up: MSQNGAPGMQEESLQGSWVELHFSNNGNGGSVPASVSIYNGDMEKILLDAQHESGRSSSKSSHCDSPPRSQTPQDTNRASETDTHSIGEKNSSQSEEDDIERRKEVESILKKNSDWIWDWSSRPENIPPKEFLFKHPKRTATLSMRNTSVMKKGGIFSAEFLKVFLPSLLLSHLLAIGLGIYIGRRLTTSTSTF
UniProt Q9H7T9: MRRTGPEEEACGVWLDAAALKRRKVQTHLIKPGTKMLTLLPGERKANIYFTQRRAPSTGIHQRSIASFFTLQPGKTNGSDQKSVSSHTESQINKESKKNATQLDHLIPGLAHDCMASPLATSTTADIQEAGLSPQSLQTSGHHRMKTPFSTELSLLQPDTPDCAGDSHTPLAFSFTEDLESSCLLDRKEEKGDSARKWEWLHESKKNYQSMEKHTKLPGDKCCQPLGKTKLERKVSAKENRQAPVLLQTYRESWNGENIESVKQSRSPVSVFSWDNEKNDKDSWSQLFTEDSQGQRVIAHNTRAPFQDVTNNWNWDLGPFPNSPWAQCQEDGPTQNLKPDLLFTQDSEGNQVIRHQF
UniProt Q9UIG0: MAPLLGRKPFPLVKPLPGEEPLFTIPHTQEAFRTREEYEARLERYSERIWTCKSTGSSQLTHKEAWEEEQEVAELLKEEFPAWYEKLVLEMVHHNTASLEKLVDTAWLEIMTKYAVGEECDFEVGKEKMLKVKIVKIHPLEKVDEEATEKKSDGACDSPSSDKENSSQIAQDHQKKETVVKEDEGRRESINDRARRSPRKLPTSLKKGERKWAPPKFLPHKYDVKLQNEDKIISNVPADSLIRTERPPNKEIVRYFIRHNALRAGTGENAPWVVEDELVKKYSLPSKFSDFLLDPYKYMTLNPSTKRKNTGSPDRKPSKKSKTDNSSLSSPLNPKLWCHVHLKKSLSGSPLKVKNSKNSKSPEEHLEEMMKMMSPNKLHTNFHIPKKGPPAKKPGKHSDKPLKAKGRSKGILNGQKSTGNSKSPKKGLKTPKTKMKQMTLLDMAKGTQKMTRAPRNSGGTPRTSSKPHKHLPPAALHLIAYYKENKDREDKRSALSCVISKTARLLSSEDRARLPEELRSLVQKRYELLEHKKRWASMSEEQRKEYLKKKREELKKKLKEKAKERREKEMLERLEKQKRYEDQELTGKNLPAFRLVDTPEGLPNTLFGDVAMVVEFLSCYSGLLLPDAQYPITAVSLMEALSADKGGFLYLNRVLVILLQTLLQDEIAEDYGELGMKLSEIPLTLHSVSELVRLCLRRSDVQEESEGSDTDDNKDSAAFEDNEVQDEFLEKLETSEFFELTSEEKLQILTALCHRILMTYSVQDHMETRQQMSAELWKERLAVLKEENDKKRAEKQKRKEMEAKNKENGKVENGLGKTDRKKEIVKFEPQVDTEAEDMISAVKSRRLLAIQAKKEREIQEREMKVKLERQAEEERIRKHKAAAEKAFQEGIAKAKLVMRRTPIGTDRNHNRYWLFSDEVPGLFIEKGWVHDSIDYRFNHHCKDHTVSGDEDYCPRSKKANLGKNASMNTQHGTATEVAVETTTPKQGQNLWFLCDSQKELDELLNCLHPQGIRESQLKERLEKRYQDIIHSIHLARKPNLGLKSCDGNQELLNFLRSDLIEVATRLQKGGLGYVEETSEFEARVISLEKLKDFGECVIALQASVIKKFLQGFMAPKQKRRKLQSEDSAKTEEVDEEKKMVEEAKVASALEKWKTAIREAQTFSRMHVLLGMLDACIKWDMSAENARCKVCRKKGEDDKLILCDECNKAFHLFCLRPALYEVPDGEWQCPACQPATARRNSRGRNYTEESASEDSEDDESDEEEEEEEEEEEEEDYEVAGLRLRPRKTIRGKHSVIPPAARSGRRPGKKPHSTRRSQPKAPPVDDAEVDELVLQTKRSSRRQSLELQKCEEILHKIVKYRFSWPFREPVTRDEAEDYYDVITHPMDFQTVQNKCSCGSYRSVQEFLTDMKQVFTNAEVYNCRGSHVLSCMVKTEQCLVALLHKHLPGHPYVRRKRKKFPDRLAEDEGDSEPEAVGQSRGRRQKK
UniProt Q9NWD9: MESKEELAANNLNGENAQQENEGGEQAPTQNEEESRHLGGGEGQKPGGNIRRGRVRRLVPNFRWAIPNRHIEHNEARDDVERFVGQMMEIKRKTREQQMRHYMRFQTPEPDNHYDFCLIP
UniProt Q6UW56: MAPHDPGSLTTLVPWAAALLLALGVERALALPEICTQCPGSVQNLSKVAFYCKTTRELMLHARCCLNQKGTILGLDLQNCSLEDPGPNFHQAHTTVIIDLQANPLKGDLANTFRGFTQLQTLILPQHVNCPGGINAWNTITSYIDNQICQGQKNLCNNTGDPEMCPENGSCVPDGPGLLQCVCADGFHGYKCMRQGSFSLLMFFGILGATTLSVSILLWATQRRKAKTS

Key:
Experiment in all cases: log2 fold change, soluble protein after heating vs DMSO (PISA); higher = thermal stabilisation; K562 cells, 10 uM, 30 min; active = over 0.2 and 3.5 SD of the protein, either way, in both replicates (recomputed)
[1] = compound: CC1=C(C=C(C=C1)NC(=O)C2=CC(=CC=C2)C(C)(C)C#N)NC3=CC4=C(C=C3)N=CN(C4=O)C
Outline: (§1)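 K562 cells at 2×10^6 cells/mL were treated for 30 min with 10 μM compound, and aliquots were heated for 3 min over 48°C-58°C before pooling. Extraction used PBS with 0.5% NP-40 at 4°C, and soluble protein was the supernatant after 21,000xg for 90 min, measured by TMTpro 16plex LC-MS/MS with channel sums equalised. Thermal stability values, relative to control samples and from duplicates, are log2 fold changes.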

[2] = compound: CC1=C(C=C(C=C1)NC(=O)C2=CC(=CC=C2)N(C)C)NC(=O)C3=CC=C(C=C3)O
Outline: as §1

[3] = compound: CC1=CC=C(C=C1)SC2=C3C=C(SC3=CN=C2)C(=O)N
Outline: as §1

[4] = compound: CC1=NC(=CC=C1)C2=C(N=C(N2)C(C)(C)C)C3=CC4=NC=CN=C4C=C3
Outline: as §1

[5] = compound: CCCS(=O)(=O)Nc1ccc(F)c(C(=O)c2c[nH]c3ncc(-c4ccc(Cl)cc4)cc23)c1F [vemurafenib]
Outline: as §1

[6] = compound: CCCS(=O)(=O)Nc1ccc(F)c(C(=O)c2c[nH]c3ncc(Cl)cc23)c1F
Outline: as §1

[7] = compound: CCCc1cc(C)[nH]c(=O)c1CNC(=O)c1cc(-c2ccnc(N3CCN(C)CC3)c2)cc2c1cnn2C(C)C
Outline: as §1

[8] = compound: CCN(CC)Cc1ccc2cc(COC(=O)Nc3ccc(C(=O)NO)cc3)ccc2c1 [givinostat]
Outline: as §1

[9] = compound: CCN(CCCOc1ccc2c(Nc3cc(CC(=O)Nc4cccc(F)c4)[nH]n3)ncnc2c1)CCOP(=O)(O)O [barasertib]
Outline: as §1

[10] = compound: CC[C@@H]1C(=O)N(C)c2cnc(Nc3ccc(C(=O)NC4CCN(C)CC4)cc3OC)nc2N1C1CCCC1
Outline: as §1

[11] = compound: CC[C@@H]1C(=O)N(C)c2cnc(Nc3ccc(C(=O)N[C@H]4CC[C@H](N5CCN(CC6CC6)CC5)CC4)cc3OC)nc2N1C(C)C [volasertib]
Outline: as §1

[12] = compound: CC[C@H](C)N1C=C(C2=C(C=C(C=C21)C3=CN=C(C=C3)N4CCNCC4)C(=O)NCC5=C(C=C(NC5=O)C)C)C
Outline: as §1

[13] = compound: CCn1cc(-c2ccnc3[nH]c(-c4cccc(CN(C)C)c4)cc23)c(-c2ccc(NC(=O)N(C)C)cc2)n1
Outline: as §1

[14] = compound: CN(C)CC(=O)Nc1ccc2[nH]c(=O)c3ccccc3c2c1
Outline: as §1

[15] = compound: CN1C2=C(C3=C1C(=O)N(N=C3)CC4=CC(=CC=C4)N)SC(=C2)S(=O)C
Outline: as §1

[16] = compound: CN1CCC(CNc2ccc3ncc(-c4cccc(OC(F)(F)F)c4)n3n2)CC1
Outline: as §1

[17] = compound: CCCCN(Cc1ccc(C(=O)NO)cc1)C(=O)Nc1ccccc1 [Nexturastat A]
Outline: as §1

[18] = compound: CC[C@H](C)[C@@H](C(=O)N[C@@H]([C@@H](C)O)C(=O)N[C@@H](CC(C)C)C(=O)[C@]1(CO1)C)NC(=O)[C@H]([C@@H](C)CC)N(C)C(=O)C [epoxomicin]
Outline: as §1

[19] = compound: CCn1c(C(=O)N(C2CC2)C2CC2)cc2c3c(ncn3C)c(Nc3cc(C)n(C)n3)nc21
Outline: as §1

[20] = compound: CN(CCOC1=CC=C(C=C1)C[C@H]2C(=O)NC(=O)S2)C3=CC=CC=N3 (racemic) [rosiglitazone]
Outline: as §1

Row | Target | log2 fold change [1] | log2 fold change [2] | log2 fold change [3] | log2 fold change [4] | log2 fold change [5] | log2 fold change [6] | log2 fold change [7] | log2 fold change [8] | log2 fold change [9] | log2 fold change [10] | log2 fold change [11] | log2 fold change [12] | log2 fold change [13] | log2 fold change [14] | log2 fold change [15] | log2 fold change [16] | log2 fold change [17] | log2 fold change [18] | log2 fold change [19] | log2 fold change [20]
1 | BRD3 (UniProt Q15059) | inactive: 0.261 | inactive: 0.008 | inactive: 0.035 | inactive: -0.003 | inactive: 0.198 | inactive: -0.048 | inactive: -0.017 | active: -0.842 | inactive: -0.339 | active: 1.63 | active: 1.46 | inactive: -0.088 | active: 0.681 | inactive: 0.073 | inactive: -0.143 | inactive: 0.106 | – | – | – | –
2 | BRD2 isoform 2 (UniProt P25440) | inactive: 0.348 | – | inactive: 0.039 | inactive: 0.076 | inactive: -0.033 | inactive: 0.014 | – | inactive: -0.596 | inactive: -0.053 | – | active: 1.76 | – | inactive: 0.486 | inactive: 0.115 | inactive: -0.132 | inactive: 0.129 | – | – | – | –
3 | BCL2L11 (UniProt O43521) | inactive: -0.1 | inactive: 0.055 | – | – | inactive: 0.042 | – | inactive: -0.02 | inactive: -0.022 | – | inactive: -0.111 | – | inactive: -0.183 | inactive: -0.174 | inactive: -0.024 | inactive: -0.063 | inactive: -0.086 | inactive: -0.013 | inactive: -0.102 | inactive: 0.014 | –
4 | ATXN2 (UniProt F8W0B5) | inactive: 0.105 | inactive: -0.079 | – | – | – | – | inactive: -0.137 | inactive: 0.041 | – | inactive: -0.008 | – | inactive: -0.082 | inactive: 0.325 | – | inactive: 0.126 | inactive: -0.302 | – | – | inactive: 0.016 | –
5 | BDH2 (UniProt Q9BUT1) | inactive: -0.051 | inactive: -0.085 | inactive: 0.086 | inactive: 0.016 | active: 0.447 | inactive: -0.077 | inactive: -0.019 | inactive: -0.033 | inactive: -0.019 | – | inactive: -0.126 | – | inactive: 0.005 | inactive: 0.367 | inactive: -0.028 | inactive: -0.033 | – | – | – | –
6 | ATXN7L3 isoform 2 (UniProt Q14CW9) | inactive: 0.013 | inactive: -0.017 | – | inactive: -0.09 | – | – | inactive: 0.137 | inactive: -0.046 | inactive: -0.042 | inactive: -0.042 | – | inactive: -0.166 | – | – | – | – | – | – | – | –
7 | BET1L (UniProt Q9NYM9) | inactive: 0.034 | inactive: -0.023 | inactive: 0.032 | – | inactive: 0.049 | inactive: -0.093 | inactive: -0.021 | inactive: -0.081 | – | inactive: 0 | inactive: -0.009 | inactive: -0.022 | – | inactive: 0.008 | inactive: -0.181 | – | inactive: 0.115 | inactive: 0.08 | inactive: 0.02 | –
8 | B3GNT5 (UniProt Q9BYG0) | inactive: -0.06 | – | – | inactive: -0.023 | inactive: -0.155 | – | inactive: -0.062 | inactive: 0.037 | inactive: -0.104 | – | – | inactive: 0.119 | – | inactive: 0.081 | inactive: -0.179 | – | inactive: 0.028 | inactive: -0.01 | inactive: -0.034 | inactive: 0.058
9 | BNIP3 (UniProt Q12983) | inactive: 0.011 | inactive: -0.026 | inactive: 0.022 | – | inactive: 0.059 | inactive: 0.036 | inactive: -0.487 | – | inactive: -0.083 | inactive: 0.011 | inactive: -0.261 | inactive: -0.017 | inactive: 0.085 | inactive: 0.052 | – | inactive: -0.199 | inactive: 0.293 | inactive: 0.145 | – | inactive: 0.051
10 | AUNIP isoform 2 (UniProt Q9H7T9) | inactive: 0.113 | – | inactive: 0.101 | – | inactive: 0.081 | inactive: 0.073 | – | inactive: 0.083 | – | – | inactive: -0.03 | – | – | inactive: -0.163 | inactive: -0.031 | – | – | – | – | –
11 | BCL7C isoform 2 (UniProt Q8WUZ0) | inactive: 0.066 | – | – | – | – | – | inactive: -0.078 | inactive: -0.021 | inactive: -0.022 | – | – | inactive: -0.113 | – | – | – | – | inactive: 0.122 | inactive: -0.015 | inactive: -0.282 | inactive: -0.037
12 | BAZ1B (UniProt Q9UIG0) | inactive: -0.08 | – | – | inactive: -0.025 | inactive: -0.115 | – | inactive: 0.058 | – | – | inactive: -0.099 | – | inactive: 0.094 | inactive: 0.131 | inactive: 0.013 | – | inactive: -0.089 | – | – | – | –
13 | BEX4 (UniProt Q9NWD9) | inactive: -0.131 | – | – | – | – | – | inactive: -0.315 | inactive: 0.094 | inactive: 0.088 | inactive: 0.146 | – | – | – | – | inactive: -0.005 | – | – | – | inactive: -0.062 | inactive: 0.125
14 | ATRAID isoform 3 (UniProt Q6UW56) | inactive: -0.045 | inactive: -0.007 | inactive: -0.026 | inactive: -0.007 | inactive: -0.061 | inactive: -0.072 | inactive: -0.012 | inactive: 0.022 | inactive: -0.013 | inactive: -0.003 | inactive: 0.131 | inactive: -0.044 | inactive: -0.17 | inactive: -0.013 | inactive: -0.038 | inactive: 0.039 | – | – | inactive: 0.065 | inactive: 0.062

Some values from above:
BEX4 (UniProt Q9NWD9) | log2 fold change [10]: inactive: 0.146
ATXN2 (UniProt F8W0B5) | log2 fold change [2]: inactive: -0.079
